Test results published in US20150065466A1, “NOVEL DXR INHIBITORS FOR ANTIMICROBIAL THERAPY” (priority 2012, published 2015).
Some results were stated once for a whole list of compounds, not compound by compound. At least one compound was matched to its structure with a doubt left. Some compounds share one range, which may span the group rather than tell each member.

biological target: T1, PfDXR (Plasmodium falciparum, UniProt Q8IKG4); test: recombinant PfDXR enzyme inhibition; format: biochemical, P. falciparum; conditions: read-out: Ki against PfDXR
T1 sequence (Q8IKG4 75-488): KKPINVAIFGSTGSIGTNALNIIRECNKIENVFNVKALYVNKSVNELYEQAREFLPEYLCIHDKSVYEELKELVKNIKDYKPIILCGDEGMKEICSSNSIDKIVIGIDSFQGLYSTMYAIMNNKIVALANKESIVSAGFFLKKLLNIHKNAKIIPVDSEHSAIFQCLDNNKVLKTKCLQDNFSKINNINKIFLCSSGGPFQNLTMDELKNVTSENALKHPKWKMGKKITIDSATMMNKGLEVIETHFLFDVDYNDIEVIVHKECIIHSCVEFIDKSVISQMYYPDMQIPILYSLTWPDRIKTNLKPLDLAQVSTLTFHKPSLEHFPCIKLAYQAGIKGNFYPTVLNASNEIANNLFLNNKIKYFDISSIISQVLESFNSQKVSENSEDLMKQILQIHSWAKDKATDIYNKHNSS

SMILES | Ki [nM]
O=CN(O)CCC(c1ccc(Cl)c(Cl)c1)P(=O)(O)O (stereo not drawn) [Compound 10] | 1.9 to 13
CC(=O)N(O)CCC(c1ccncc1)P(=O)(O)O (stereo not drawn) [SYC-409] | 1.9 to 13
O=CN(O)CCC(c1ccncc1)P(=O)(O)O (stereo not drawn) [SYC-467] | 1.9 to 13
